Experimental data reported in EP4803095A2, “FORMULATIONS OF GLUCAGON-LIKE-PEPTIDE-2 (GLP-2) ANALOGUES” (Zealand Pharma A/S, priority 2018, dated 2026).
Not every detail of the peptide structures is certain; ends, links or a residue may be inferred. Where a SMILES comes first, the peptide text is derived from it. Where no end group is shown, it is not given here.

Experiment: Covalently linked oligomers by size exclusion HPLC (area %)
Type: physicochemical
Conditions: for Covalently linked oligomers: 230 mM mannitol, 15 mM histidine, pH 7, 24 months at 2-8°C

| Molecule | Covalently linked oligomers (0.2 mg/mL) [%] | Covalently linked oligomers (2 mg/mL) [%] | increase of covalent oligomers per week (2 mg/mL, 3 weeks at 40°C) [% increase per week] | formation of covalent oligomers (2 mg/mL, after 3 weeks at 40°C) [%] | Covalently linked oligomers (20 mg/mL) [%] | increase of covalent oligomers per week (20 mg/mL, 3 weeks at 40°C) [% increase per week] | formation of covalent oligomers (20 mg/mL, after 3 weeks at 40°C) [%] | formation of covalent oligomers (mannitol formulation, 3 weeks at 40°C (Example 7)) [%] | formation of covalent oligomers (sorbitol formulation, 3 weeks at 40°C (Example 7)) [%] | initial value of the amount of oligomer (Example 2 formulations, before storage) | increase of covalent oligomers per week (2 mg/mL, 4 weeks at 40°C) [% increase per week] | formation of covalent oligomers (2 mg/mL, after 4 weeks at 40°C) [%] | increase of covalent oligomers per week (20 mg/mL, 4 weeks at 40°C) [% increase per week] | formation of covalent oligomers (20 mg/mL, after 4 weeks at 40°C) [%] | formation of covalent oligomers (sorbitol containing formulation at 20 mg/mL, 40°C) |
| --- | --- | --- | --- | --- | --- | --- | --- | --- | --- | --- | --- | --- | --- | --- | --- |
| CC[C@H](C)[C@H](NC(=O)[C@H](CC(C)C)NC(=O)[C@H](Cc1c[nH]c2ccccc12)NC(=O)[C@H](C)NC(=O)[C@@H](NC(=O)[C@H](Cc1ccccc1)NC(=O)[C@H](CC(=O)O)NC(=O)[C@H](CCCNC(=N)N)NC(=O)[C@H](C)NC(=O)[C@H](C)NC(=O)[C@H](CC(C)C)NC(=O)[C@H](C)NC(=O)[C@H](CC(=O)O)NC(=O)[C@H](CC(C)C)NC(=O)[C@@H](NC(=O)[C@@H](NC(=O)[C@H](C)NC(=O)[C@H](CC(C)C)NC(=O)[C@H](CCC(=O)O)NC(=O)[C@H](CO)NC(=O)[C@H](CO)NC(=O)[C@H](Cc1ccccc1)NC(=O)[C@@H](NC(=O)CNC(=O)[C@H](CCC(=O)O)NC(=O)CNC(=O)[C@@H](N)Cc1c[nH]cn1)[C@@H](C)O)[C@@H](C)O)[C@@H](C)CC)[C@@H](C)CC)C(=O)N[C@@H](C)C(=O)N[C@H](C(=O)N[C@@H](CCCCN)C(=O)N[C@H](C(=O)N[C@H](C(=O)N[C@@H](CC(=O)O)C(=O)N[C@@H](CCCCN)C(=O)N[C@@H](CCCCN)C(=O)N[C@@H](CCCCN)C(=O)N[C@@H](CCCCN)C(=O)N[C@@H](CCCCN)C(=O)N[C@@H](CCCCN)C(N)=O)[C@@H](C)O)[C@@H](C)CC)[C@@H](C)O [ZP1848-acetate] (H-HGEGTFSSELATILDALAARDFIAWLIATKITDKKKKKK-NH2) | 2.60 | 1.91 | 0.27 | 1.2 | 1.35 | 0.21 | 0.9 | 0.9 | 1.1 |  |  |  |  |  |  |
| CC[C@H](C)[C@H](NC(=O)[C@H](CC(C)C)NC(=O)[C@H](Cc1c[nH]c2ccccc12)NC(=O)[C@H](C)NC(=O)[C@@H](NC(=O)[C@H](Cc1ccccc1)NC(=O)[C@H](CC(=O)O)NC(=O)[C@H](CCCNC(=N)N)NC(=O)[C@H](C)NC(=O)[C@H](C)NC(=O)[C@H](CC(C)C)NC(=O)[C@H](C)NC(=O)[C@H](CC(=O)O)NC(=O)[C@H](CC(C)C)NC(=O)[C@@H](NC(=O)[C@@H](NC(=O)[C@H](C)NC(=O)[C@H](CC(C)C)NC(=O)[C@H](CCC(=O)O)NC(=O)[C@H](CO)NC(=O)[C@H](CO)NC(=O)[C@H](Cc1ccccc1)NC(=O)[C@@H](NC(=O)CNC(=O)[C@H](CCC(=O)O)NC(=O)CNC(=O)[C@@H](N)Cc1c[nH]cn1)[C@@H](C)O)[C@@H](C)O)[C@@H](C)CC)[C@@H](C)CC)C(=O)N[C@@H](C)C(=O)N[C@H](C(=O)N[C@@H](CCCCN)C(=O)N[C@H](C(=O)N[C@H](C(=O)N[C@@H](CC(=O)O)C(=O)N[C@@H](CCCCN)C(=O)N[C@@H](CCCCN)C(=O)N[C@@H](CCCCN)C(=O)N[C@@H](CCCCN)C(=O)N[C@@H](CCCCN)C(=O)N[C@@H](CCCCN)C(N)=O)[C@@H](C)O)[C@@H](C)CC)[C@@H](C)O [ZP1848] (H-HGEGTFSSELATILDALAARDFIAWLIATKITDKKKKKK-NH2) | 2.6 | 1.91 |  |  | 1.35 |  |  |  |  | less than 0.1% |  |  |  |  |  |
| HGEGTFSSELATILDALAARDFIAWLIATKITDKKKKKK-NH2 [ZP1848 chloride salt] |  |  |  |  |  |  |  |  |  |  | 0.53 | 2.4 | 0.75 | 3.3 | approximately 3.9% |
